Consider four substances from PMC4466666.

Amino acid sequences for entries named in this document (tags omitted).
UniProt P78527: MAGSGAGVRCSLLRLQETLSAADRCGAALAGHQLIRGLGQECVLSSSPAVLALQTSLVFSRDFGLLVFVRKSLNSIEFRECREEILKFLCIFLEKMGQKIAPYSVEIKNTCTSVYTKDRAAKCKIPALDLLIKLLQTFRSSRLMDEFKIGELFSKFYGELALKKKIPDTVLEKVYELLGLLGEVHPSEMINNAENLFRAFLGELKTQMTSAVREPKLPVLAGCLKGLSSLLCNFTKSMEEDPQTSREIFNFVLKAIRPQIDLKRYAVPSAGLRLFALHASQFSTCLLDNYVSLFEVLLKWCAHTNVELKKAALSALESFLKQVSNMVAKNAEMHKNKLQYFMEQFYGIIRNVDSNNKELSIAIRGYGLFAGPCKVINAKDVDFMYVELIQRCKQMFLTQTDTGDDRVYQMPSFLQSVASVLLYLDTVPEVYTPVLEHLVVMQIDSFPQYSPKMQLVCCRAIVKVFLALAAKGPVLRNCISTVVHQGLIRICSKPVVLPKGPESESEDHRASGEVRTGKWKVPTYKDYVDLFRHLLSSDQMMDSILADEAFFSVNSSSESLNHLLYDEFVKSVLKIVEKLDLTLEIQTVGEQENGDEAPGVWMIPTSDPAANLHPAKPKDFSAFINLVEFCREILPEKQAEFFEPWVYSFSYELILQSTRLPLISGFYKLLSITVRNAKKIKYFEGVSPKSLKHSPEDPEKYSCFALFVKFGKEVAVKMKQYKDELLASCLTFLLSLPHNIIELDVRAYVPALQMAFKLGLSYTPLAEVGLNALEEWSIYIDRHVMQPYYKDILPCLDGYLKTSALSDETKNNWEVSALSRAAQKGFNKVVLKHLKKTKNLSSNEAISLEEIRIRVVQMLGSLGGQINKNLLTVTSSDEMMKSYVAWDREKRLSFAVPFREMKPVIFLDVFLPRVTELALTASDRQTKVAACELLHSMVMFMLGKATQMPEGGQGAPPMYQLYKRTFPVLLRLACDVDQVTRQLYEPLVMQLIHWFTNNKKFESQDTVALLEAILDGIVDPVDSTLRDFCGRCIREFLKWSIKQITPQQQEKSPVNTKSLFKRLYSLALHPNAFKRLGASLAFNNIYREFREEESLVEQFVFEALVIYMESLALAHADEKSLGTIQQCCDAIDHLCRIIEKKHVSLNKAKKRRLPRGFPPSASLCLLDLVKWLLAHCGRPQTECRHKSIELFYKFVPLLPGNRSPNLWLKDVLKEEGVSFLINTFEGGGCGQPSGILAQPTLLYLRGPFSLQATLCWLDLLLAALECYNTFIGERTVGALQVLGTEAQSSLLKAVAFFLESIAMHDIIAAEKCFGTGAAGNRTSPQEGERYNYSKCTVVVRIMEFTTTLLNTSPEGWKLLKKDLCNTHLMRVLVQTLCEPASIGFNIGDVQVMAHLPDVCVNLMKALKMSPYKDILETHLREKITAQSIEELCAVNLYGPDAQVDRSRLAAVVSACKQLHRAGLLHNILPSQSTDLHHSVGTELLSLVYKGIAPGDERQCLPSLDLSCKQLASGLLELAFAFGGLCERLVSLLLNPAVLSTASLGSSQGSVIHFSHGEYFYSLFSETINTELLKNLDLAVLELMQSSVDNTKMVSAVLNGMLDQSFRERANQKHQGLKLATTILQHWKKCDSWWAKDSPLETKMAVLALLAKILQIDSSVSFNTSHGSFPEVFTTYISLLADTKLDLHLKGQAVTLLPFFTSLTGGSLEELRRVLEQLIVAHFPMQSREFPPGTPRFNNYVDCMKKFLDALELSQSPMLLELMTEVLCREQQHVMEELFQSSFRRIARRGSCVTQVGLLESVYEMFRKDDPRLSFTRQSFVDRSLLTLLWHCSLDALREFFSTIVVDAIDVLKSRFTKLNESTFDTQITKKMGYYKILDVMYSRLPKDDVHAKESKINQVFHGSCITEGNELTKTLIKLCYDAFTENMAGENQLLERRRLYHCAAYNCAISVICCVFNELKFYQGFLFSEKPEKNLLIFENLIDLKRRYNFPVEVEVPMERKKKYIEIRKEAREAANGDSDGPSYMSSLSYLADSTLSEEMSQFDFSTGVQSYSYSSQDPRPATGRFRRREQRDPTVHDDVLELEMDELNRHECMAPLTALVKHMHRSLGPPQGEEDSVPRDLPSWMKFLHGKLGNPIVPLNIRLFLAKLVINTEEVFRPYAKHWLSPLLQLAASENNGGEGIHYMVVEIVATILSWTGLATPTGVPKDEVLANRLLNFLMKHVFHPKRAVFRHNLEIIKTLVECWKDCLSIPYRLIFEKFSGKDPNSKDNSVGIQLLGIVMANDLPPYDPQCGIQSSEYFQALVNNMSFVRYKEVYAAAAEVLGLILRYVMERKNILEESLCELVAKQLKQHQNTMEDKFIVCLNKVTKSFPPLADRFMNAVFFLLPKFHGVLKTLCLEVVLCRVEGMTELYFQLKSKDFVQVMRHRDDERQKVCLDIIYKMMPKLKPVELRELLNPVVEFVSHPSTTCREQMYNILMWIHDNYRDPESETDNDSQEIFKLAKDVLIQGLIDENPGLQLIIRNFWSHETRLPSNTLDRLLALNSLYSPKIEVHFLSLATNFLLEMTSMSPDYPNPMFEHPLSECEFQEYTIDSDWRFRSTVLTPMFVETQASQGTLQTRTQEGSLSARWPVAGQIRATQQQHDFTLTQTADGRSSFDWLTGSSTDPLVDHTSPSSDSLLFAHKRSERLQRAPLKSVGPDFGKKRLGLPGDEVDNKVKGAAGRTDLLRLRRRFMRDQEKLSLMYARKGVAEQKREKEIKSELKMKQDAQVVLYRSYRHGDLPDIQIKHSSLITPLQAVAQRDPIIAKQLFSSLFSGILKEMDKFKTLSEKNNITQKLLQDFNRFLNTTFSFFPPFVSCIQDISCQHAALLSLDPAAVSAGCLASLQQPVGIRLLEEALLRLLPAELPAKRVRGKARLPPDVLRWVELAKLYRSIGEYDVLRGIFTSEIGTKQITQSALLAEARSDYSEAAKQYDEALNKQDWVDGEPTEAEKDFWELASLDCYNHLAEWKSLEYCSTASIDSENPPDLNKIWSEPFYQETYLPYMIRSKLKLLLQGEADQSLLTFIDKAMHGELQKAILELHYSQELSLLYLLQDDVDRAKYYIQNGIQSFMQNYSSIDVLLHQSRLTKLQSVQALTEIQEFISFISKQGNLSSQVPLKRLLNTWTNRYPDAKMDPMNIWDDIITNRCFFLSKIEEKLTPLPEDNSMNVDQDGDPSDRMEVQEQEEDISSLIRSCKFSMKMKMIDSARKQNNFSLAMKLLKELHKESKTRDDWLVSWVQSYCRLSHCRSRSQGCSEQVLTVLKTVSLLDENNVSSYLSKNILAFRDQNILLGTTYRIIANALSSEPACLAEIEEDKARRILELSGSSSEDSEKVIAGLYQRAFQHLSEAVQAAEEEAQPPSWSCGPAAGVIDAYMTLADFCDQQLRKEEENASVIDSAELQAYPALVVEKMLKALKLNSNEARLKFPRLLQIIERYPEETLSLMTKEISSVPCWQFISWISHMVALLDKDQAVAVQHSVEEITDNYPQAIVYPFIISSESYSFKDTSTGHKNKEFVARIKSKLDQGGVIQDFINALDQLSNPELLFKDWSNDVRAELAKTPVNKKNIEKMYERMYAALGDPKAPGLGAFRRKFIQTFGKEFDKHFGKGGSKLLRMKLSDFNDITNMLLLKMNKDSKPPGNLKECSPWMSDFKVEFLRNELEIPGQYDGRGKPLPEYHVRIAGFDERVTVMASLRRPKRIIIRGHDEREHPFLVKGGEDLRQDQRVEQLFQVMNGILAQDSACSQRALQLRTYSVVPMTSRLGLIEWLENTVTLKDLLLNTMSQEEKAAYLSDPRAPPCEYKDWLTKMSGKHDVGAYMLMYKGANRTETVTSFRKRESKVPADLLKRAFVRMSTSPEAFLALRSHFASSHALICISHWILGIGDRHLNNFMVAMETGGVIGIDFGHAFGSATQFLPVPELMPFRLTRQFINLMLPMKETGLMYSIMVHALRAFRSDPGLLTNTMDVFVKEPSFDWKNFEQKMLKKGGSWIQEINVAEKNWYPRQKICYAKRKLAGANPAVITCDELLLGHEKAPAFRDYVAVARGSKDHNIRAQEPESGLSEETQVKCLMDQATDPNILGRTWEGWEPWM
UniProt P09874: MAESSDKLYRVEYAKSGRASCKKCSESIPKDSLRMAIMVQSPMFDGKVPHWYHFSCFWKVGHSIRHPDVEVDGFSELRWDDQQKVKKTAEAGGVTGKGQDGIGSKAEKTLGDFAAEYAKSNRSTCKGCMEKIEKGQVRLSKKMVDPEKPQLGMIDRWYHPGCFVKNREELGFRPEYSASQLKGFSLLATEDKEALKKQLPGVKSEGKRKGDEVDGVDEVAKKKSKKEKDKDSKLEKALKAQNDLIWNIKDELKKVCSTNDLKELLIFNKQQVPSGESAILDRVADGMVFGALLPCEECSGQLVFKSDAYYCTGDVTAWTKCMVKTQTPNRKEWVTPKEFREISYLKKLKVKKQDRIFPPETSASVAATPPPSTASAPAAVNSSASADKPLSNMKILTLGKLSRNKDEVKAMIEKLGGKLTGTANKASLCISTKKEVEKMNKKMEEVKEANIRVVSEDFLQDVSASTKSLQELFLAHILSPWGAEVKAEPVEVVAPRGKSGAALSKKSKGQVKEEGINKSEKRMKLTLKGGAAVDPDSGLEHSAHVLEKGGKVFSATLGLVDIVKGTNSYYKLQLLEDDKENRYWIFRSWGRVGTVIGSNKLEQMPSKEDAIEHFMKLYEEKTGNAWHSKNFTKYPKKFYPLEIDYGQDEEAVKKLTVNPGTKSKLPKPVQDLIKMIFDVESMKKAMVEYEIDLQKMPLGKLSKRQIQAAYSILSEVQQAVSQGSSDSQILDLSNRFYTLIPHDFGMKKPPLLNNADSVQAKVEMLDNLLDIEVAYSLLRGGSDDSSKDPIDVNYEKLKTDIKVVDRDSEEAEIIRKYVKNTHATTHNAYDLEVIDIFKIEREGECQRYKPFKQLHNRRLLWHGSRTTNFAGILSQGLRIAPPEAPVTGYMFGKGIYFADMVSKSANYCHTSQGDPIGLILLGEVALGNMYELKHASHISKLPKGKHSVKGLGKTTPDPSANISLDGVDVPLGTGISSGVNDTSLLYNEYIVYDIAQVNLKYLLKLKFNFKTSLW

Holding throughout (assay): co-IP; HeLa cell lysates in NTEN buffer (100 mM NaCl, 20 mM Tris-Cl pH 8.0, 0.5 mM EDTA, 0.5% NP-40); 2 ug primary antibody for 12 h at 4°C, protein A/G agarose for 4 h at 4°C, 4 washes, western blot; IgG control; cells transfected with myc-tagged TNKS1BP1; the DNA-PKcs IP was also done from HeLa-NC, HeLa-shTNKS1BP1 (knock-down) and HeLa-mycTNKS1BP1 (overexpression) cells
On the technique in general: Immunoblotting shows a protein as a band on a membrane.

In assay [1] the target is tankyrase 1 binding protein 1 of 182 kDa (TNKS1BP1), myc-tagged (UniProt Q9C0C2).
The target in assay [2] is DNA dependent protein kinase catalytic subunit (DNA-PKcs) (human (endogenous in HeLa)) (UniProt P78527).
The target of assay [3] is poly(ADP-ribose) polymerase 1 (PARP-1) (human (endogenous in HeLa)) (UniProt P09874).

Results are given in words; binding and its absence hold for the method and conditions named. In cells and extracts the contact can be indirect. Some results given as binding are weak or reduced against the parent protein; the word gives no strength.

In the case of “DNA dependent protein kinase catalytic subunit (DNA-PKcs) (from UniProt P78527 1-4128)”, the binding result in assay [1] was “binds”. Turning to “Ku70/Ku80 heterodimer (from UniProt P12956 1-609; P13010 1-732) (complex)”, the binding result in assay [1] is recorded as “binds”. Consider “poly(ADP-ribose) polymerase 1 (PARP-1) (from UniProt P09874 1-1014)”, for which the binding result in assay [1] is listed as “binds”. In the case of “tankyrase 1 binding protein 1 of 182 kDa (TNKS1BP1), myc-tagged (from UniProt Q9C0C2 1-1729)”, the binding entry in assay [2] and in assay [3] was “binds” each time.
